We go through 24 compounds from PubChem BioAssay AID248 (DTP/NCI, 2004).

The list shows only some results of the screen, not a fair sample: it is rich in T/C values a quarter to a half above the control, in often repeated tests (any T/C) and in doses without a T/C. Other doses and runs of a compound stand elsewhere. T/C gives the treated animals as a percentage of the vehicle group. Some doses have a count of surviving animals in place of a T/C: the source holds a T/C of zero for them, seemingly a mark for toxic or unscored doses. Some survivor counts are full or nearly so, which does not show that the dose was tolerated: the source hardly ever lists a survival T/C far under the control, and the zero likely stands for such cases as well. Counts of survivors are from the toxicity check (mostly the fifth day) where no day follows; animals may have died later. Schedules are NCI's codes, taken here to give the interval after Q, in days (D) or hours (H), and the number of doses after X. Some schedule codes hold Z or #, which are not explained here. Some molecules as drawn cover several salts, stereoisomers or complexes of the source; a dose is that of the sample tested. Where survival is the endpoint, the PubChem record calls one and a half times the control and up active, and a quarter to a half above the control has no call in these data; cut-offs in other NCI protocols can differ. Some entries hold several experiments; the results are listed from low to high.

The assay relates to L1210 leukemia ip in BDF1 mice, survival T/C. The assay can be described thus: NCI In Vivo Anticancer Drug Screen. Data for tumor model L1210 Leukemia (intraperitoneal) in B6D2F1 (BDF1) mice. As to conditions: T/C endpoint: mean survival time, higher T/C = longer survival.
Where [1] appears, read: dose: 200.0 mg/kg/injection, schedule: Q01DX009 (ip), vehicle: saline with Tween-80.
The mark [2] stands for this setting: dose: 400.0 mg/kg/injection, schedule: Q01DX009 (ip), vehicle: saline with Tween-80.
[3] abbreviates: dose: 200.0 mg/kg/injection, schedule: Q01DX001 (ip), vehicle: water.
Where [4] appears, read: dose: 200.0 mg/kg/injection, schedule: Q04DX002 (ip), vehicle: saline.
Setting [5] is: dose: 400.0 mg/kg/injection, schedule: Q04DX002 (ip), vehicle: saline.
Setting [6] is: dose: 400.0 mg/kg/injection, schedule: Q01DX001 (ip), vehicle: saline with Tween-80.
Where [7] appears, read: dose: 400.0 mg/kg/injection, schedule: Q01DX001 (ip), vehicle: saline.
The mark [8] stands for this setting: dose: 200.0 mg/kg/injection, schedule: Q04DX003 (ip), vehicle: saline with Tween-80.
[9] abbreviates: dose: 100.0 mg/kg/injection, schedule: Q04DX003 (ip), vehicle: saline with Tween-80.
[10] abbreviates: dose: 400.0 mg/kg/injection, schedule: Q04DX003 (ip), vehicle: saline.

With `Nc1nc(F)nc2c1ncn2C1OC(CO)C(O)C1O` (stereo unspecified), the T/C is, setting by setting: (dose: 0.5 mg/kg/injection, schedule: Q01DX009 (ip), vehicle: saline) 98, 101, 103, 104 % of control; (dose: 1.0 mg/kg/injection, schedule: Q01DX009 (ip), vehicle: saline) 101, 109, 110, 111 % of control; (dose: 2.0 mg/kg/injection, schedule: Q01DX009 (ip), vehicle: saline) 98, 106, 109, 127 % of control; (dose: 4.0 mg/kg/injection, schedule: Q01DX009 (ip), vehicle: saline) 101, 103, 104, 108 % of control; (dose: 100.0 mg/kg/injection, schedule: Q06HX012 (ip), vehicle: saline with Tween-80, evaluated on day 5) 180 % of control; (dose: 100.0 mg/kg/injection, schedule: Q06HX012 (ip), vehicle: saline with Tween-80, evaluated on day 60) 154, 179, 180 % of control. Also, the T/C reads like this: under setting [1], 138 % of control; (dose: 500.0 mg/kg/injection, schedule: Q12HX006 (ip), vehicle: saline with Tween-80) 141 % of control. Besides, the survivor count runs as follows: (dose: 150.0 mg/kg/injection, schedule: Q03HX024 (ip), vehicle: saline with Tween-80) 4 of 6; under setting [2], 7 of 10; (dose: 500.0 mg/kg/injection, schedule: Q01DX009 (ip), vehicle: saline with Tween-80) 8 of 10.

As to `CC(C)CCCC(C)C1CCC2C3CC=C4CC([S+](C)C)CCC4(C)C3CCC12C` (stereo unspecified), the survivor count (dose: 100.0 mg/kg/injection, schedule: Q01DX009 (ip), vehicle: saline) is recorded as 6 of 6; the survivor count (dose: 200.0 mg/kg/injection, schedule: Q04DX003 (ip), vehicle: alcohol) is 6 of 6; the survivor count (dose: 400.0 mg/kg/injection, schedule: Q04DX003 (ip), vehicle: alcohol) is 5 of 6.

Take `NNC(=O)c1cnccn1`: for the setting “dose: 100.0 mg/kg/injection, schedule: Q01DX015 (ip), vehicle: water”, the T/C was 131 % of control. Further, the survivor count is, setting by setting: (dose: 128.0 mg/kg/injection, schedule: Q01DX015 (ip), vehicle: water) 0 of 6; under setting [3], 0 of 4; (dose: 256.0 mg/kg/injection, schedule: Q01DX015 (ip), vehicle: water) 0 of 6; (dose: 400.0 mg/kg/injection, schedule: Q01DX001 (ip), vehicle: water) 0 of 4.

Take `O=C(Cc1ccccc1)CC(O)(C(F)(F)F)C(F)(F)F`: under setting [2], the survivor count is given as 5 of 6.

As for `NC(CCl)=NCc1ccccn1`, the survivor count is reported as 1 of 3 under setting [4] and 2 of 3 under setting [5].

Turning to `c1cc[c]([Sb]([c]2ccccc2)[n]2ccnc2)cc1`, the survivor count is 0 of 3 (dose: 20.0 mg/kg/injection, schedule: Q04DX002 (ip), vehicle: saline with Tween-80); 0 of 3 (dose: 100.0 mg/kg/injection, schedule: Q04DX002 (ip), vehicle: saline with Tween-80); 0 of 3 (dose: 200.0 mg/kg/injection, schedule: Q04DX002 (ip), vehicle: saline with Tween-80); 0 of 3 (dose: 400.0 mg/kg/injection, schedule: Q04DX002 (ip), vehicle: saline with Tween-80).

As to `COc1ccc(OC)c2c1CCCC21OCCO1`, the survivor count under setting [6] is 6 of 6.

In the case of `O=C1C(=O)c2ccccc2C(O)=C1CC=C(Cl)Cl`, the survivor count runs as follows: (dose: 100.0 mg/kg/injection, schedule: Q01DX001 (ip), vehicle: saline) 0 of 6; (dose: 100.0 mg/kg/injection, schedule: Q01DX001 (ip), vehicle: water) 1 of 6; (dose: 100.0 mg/kg/injection, schedule: Q04DX003 (ip), vehicle: water) 6 of 10; (dose: 200.0 mg/kg/injection, schedule: Q01DX001 (ip), vehicle: saline) 0 of 6; under setting [3], 0 of 6; (dose: 200.0 mg/kg/injection, schedule: Q01DX001 (oral), vehicle: saline) 2 of 6. The survivor count is, setting by setting: under setting [7], 0 of 6; (dose: 400.0 mg/kg/injection, schedule: Q01DX001 (oral), vehicle: saline) 0 of 6; (dose: 800.0 mg/kg/injection, schedule: Q01DX001 (oral), vehicle: saline) 0 of 6.

Take `CCOC(=O)CC/C(=C/c1ccccc1)[N+](=O)[O-]`: the survivor count is, setting by setting: under setting [8], 2 of 6; (dose: 400.0 mg/kg/injection, schedule: Q04DX003 (ip), vehicle: saline with Tween-80) 0 of 3.

`CC(=O)c1cccc(NC(=O)Oc2cc(C)c(Cl)c(C)c2)c1`: the survivor count under setting [2] is recorded as 6 of 6.

Regarding `CCCCCC(C)NC(=O)N(CCCl)N=O` (stereo unspecified) (tested in a mixture with another compound), the survivor count (dose: 200.0 mg/kg/injection, schedule: Q01DX001 (ip), vehicle: saline with Tween-80) is listed as 10 of 10.

Consider `NNC(=O)c1ccccc1CO`, for which the survivor count under setting [6] is 1 of 6.

For the compound `CCCCCCCCSCCO`, the survivor count runs as follows: under setting [9], 6 of 6; under setting [8], 6 of 6.

`COc1nncc(-c2cnnc(OC)n2)n1`: the survivor count (dose: 50.0 mg/kg/injection, schedule: Q04DX002 (ip), vehicle: Klucel (hydroxypropylcellulose) (HPC)) is 3 of 3; the survivor count (dose: 100.0 mg/kg/injection, schedule: Q04DX002 (ip), vehicle: Klucel (hydroxypropylcellulose) (HPC)) was 0 of 3; the survivor count (dose: 200.0 mg/kg/injection, schedule: Q04DX002 (ip), vehicle: Klucel (hydroxypropylcellulose) (HPC)) is reported as 0 of 3.

Turning to `O=C1C=C(O)c2ccc(=O)[nH]c2C1=O`, the survivor count under setting [7] is 2 of 6.

As for `S=C(N/N=C/C(c1ccccc1)c1ccccc1)Nc1ccccc1`, the survivor count under setting [1] is 6 of 6.

Regarding `CCNCCNc1ccc(CO)c2sc3cc(Cl)ccc3c(=O)c12`, the survivor count by setting is: (dose: 100.0 mg/kg/injection, schedule: Q01DX009 (ip), vehicle: Klucel (hydroxypropylcellulose) (HPC)) 6 of 6; (dose: 200.0 mg/kg/injection, schedule: Q01DX009 (ip), vehicle: Klucel (hydroxypropylcellulose) (HPC)) 0 of 6.

For `CCCCCCCCCC[P+](=O)CCCCCCCCCC`, the survivor count under setting [9] was 6 of 6.

As for `CC(C)(C)C1CCNC(=O)CC1` (stereo unspecified), the survivor count runs as follows: (dose: 40.0 mg/kg/injection, schedule: Q01DX009 (ip), vehicle: Klucel (hydroxypropylcellulose) (HPC)) 5 of 6; (dose: 80.0 mg/kg/injection, schedule: Q04DX003 (ip), vehicle: Klucel (hydroxypropylcellulose) (HPC)) 3 of 6; (dose: 100.0 mg/kg/injection, schedule: Q04DX003 (ip), vehicle: Klucel (hydroxypropylcellulose) (HPC)) 6 of 6; (dose: 200.0 mg/kg/injection, schedule: Q04DX003 (ip), vehicle: Klucel (hydroxypropylcellulose) (HPC)) 0 of 6; (dose: 400.0 mg/kg/injection, schedule: Q04DX003 (ip), vehicle: Klucel (hydroxypropylcellulose) (HPC)) 0 of 6.

`CN(C)CCCNc1c2ccc(Cl)cc2nc2ccc(O)cc12`: the survivor count (dose: 50.0 mg/kg/injection, schedule: Q04DX002 (ip), vehicle: saline) is recorded as 0 of 3; the survivor count (dose: 100.0 mg/kg/injection, schedule: Q04DX002 (ip), vehicle: saline) is 3 of 3; the survivor count under setting [4] is recorded as 0 of 3; the survivor count under setting [5] is given as 0 of 3.

Consider `COc1cc(/C=N/N=C(N)N)cc(I)c1O`, for which the survivor count (dose: 120.0 mg/kg/injection, schedule: Q01DX Z (ip), vehicle: carboxymethylcellulose (CMC)) was 1 of 6. In addition, where the note is “dose: 240.0 mg/kg/injection, schedule: Q01DX Z (oral), vehicle: carboxymethylcellulose (CMC)”, the T/C was 125 % of control.

With `NCCc1cnc2ccccc2n1`, the survivor count runs as follows: (dose: 200.0 mg/kg/injection, schedule: Q04DX003 (ip), vehicle: saline) 1 of 6; under setting [10], 0 of 6.

Turning to `CCNC(=O)CCl`, the survivor count under setting [7] is given as 0 of 4.

For `O=C(O)/C=C/c1ccncc1`, the survivor count under setting [10] is 6 of 6.
